Article PMC7552479
No constants are given. Whether binding was seen depends on the method and setting. Binding seen in cells or lysates may run through a third protein. Some results given as binding are weak or reduced against the parent protein; the word gives no strength.

Chains of the proteins cited; added tags and fusions are not shown.
UniProt P40763: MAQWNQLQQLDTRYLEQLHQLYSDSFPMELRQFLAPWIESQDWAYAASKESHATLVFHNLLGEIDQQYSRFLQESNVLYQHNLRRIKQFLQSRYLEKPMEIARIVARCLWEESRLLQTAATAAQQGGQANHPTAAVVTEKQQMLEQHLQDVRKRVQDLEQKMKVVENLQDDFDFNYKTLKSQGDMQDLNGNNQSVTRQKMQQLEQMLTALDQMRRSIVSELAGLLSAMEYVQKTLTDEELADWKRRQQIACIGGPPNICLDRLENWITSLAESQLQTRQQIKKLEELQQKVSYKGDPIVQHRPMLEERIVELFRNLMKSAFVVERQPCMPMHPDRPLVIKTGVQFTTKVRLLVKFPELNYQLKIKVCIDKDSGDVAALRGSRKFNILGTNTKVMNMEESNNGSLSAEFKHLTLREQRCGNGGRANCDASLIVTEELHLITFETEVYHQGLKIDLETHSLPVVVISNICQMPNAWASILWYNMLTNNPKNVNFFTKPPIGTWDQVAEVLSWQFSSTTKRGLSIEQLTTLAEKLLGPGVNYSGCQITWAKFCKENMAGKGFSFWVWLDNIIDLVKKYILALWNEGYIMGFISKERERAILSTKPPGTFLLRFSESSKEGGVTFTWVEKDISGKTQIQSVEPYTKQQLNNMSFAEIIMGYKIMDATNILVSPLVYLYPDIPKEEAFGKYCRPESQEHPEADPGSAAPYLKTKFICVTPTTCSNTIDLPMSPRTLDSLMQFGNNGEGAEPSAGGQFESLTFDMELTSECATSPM

T1: SLC2A3 (human (endogenous in MKN45 and SNU216)) (UniProt P11169)
T1 sequence: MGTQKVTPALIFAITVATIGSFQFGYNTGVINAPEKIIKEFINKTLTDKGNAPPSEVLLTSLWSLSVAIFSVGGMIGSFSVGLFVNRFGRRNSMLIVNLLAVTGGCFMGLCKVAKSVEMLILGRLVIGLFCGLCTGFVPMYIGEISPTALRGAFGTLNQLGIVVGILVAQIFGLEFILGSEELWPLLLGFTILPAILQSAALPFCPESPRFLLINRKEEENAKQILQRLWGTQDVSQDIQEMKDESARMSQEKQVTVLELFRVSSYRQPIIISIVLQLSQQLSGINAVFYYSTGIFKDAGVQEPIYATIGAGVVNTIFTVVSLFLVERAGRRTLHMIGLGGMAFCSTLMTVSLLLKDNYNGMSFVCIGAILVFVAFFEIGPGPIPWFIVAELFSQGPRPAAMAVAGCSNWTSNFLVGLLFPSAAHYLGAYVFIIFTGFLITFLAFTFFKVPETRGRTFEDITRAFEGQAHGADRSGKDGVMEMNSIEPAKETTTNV

B1: SLC2A3 (protein, UniProt P11169 1-496)
chain: T1 sequence

Columns and labels:
[1] = target: T1, SLC2A3 (human (endogenous in MKN45 and SNU216)); test: co-IP; lysate (100 ug protein) of MKN45 and SNU216 cells incubated with anti-SLC2A3, anti-p-STAT3 (Tyr705) or IgG (negative control) at 4 C overnight; protein A/G magnetic beads 4-6 h at 4 C; four washes with PBS; western blot
[2] = target: phosphorylated STAT3 (Tyr705) (human (endogenous in MKN45 and SNU216)) (UniProt P40763); test: as above

Molecule | binding [1] | binding [2]
phosphorylated STAT3 (Tyr705) (from UniProt P40763 1-770) | binds | 
B1 |  | binds
